Molecular target: 5-hydroxytryptamine receptor 2B (Homo sapiens, UniProt P41595)

By UniProt entry, the sequences of proteins in these tests, tags left out.
UniProt P41595, whole entry: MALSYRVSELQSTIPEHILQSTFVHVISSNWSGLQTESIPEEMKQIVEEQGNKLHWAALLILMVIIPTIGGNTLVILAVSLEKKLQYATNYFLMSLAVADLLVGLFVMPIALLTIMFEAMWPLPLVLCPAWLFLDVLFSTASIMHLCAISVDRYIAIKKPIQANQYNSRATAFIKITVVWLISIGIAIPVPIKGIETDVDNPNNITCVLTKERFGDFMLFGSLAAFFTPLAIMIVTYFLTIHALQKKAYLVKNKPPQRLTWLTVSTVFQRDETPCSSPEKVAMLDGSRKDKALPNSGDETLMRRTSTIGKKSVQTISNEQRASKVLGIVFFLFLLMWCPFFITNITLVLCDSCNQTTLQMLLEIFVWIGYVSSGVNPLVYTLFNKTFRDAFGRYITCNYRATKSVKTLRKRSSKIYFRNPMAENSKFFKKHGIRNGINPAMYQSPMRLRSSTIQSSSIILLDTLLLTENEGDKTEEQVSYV

`CC[C@@H](CO)NC(=O)[C@@H]1C=C2c3cccc4c3c(cn4C)C[C@H]2N(C)C1` was tested, and the Ki was 7.94 nM.

From BindingDB's records for doi:10.1111/j.1476-5381.1995.tb14977.x (Syntex Discovery Research, 1995)
